“And” between values parts separate entries of the source, which are not always exact repeats. Equal entries are not always repeated. Among all 410,000 compounds or so, about 18,000 (4.4%) were called active. This list was built around the results that the source calls inconclusive (neither active nor inactive); the mix of calls is not that of the screen. Cut-off read from the data, not from the text of the source: active = activity change below about -60%; inconclusive = no clear call, values can overlap the other calls; inactive = above about -39%.
Assay: qHTS Assay for inhibitors of the human cytomegalovirus (HCMV)
Settings: HFF cells, HCMV-luciferase reporter, 72 h; at 57.5 µM; stronger effect = lower value
Outline: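 Luciferase read-out from HCMV-luciferase-infected HFFs (MOI 1 PFU/cell) 72 h post infection at 37C; compounds added after 16 h cell attachment; activity normalized between buffer-only basal and Salinomycin (10uM) inhibitor controls.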
In the case of `CCCOc1ccc(C(=O)Nc2cc(-c3nc4ccccc4[nH]3)ccc2C)cc1`, the activity change, negative = inhibition is reported as inactive: 2.8%.
With `O=C(NC12CC3CC(CC(C3)C1)C2)c1cc([N+](=O)[O-])ccc1N1CCOCC1` the activity change, negative = inhibition was inactive: -27.4%.
With `CCCN1C(=O)/C(=C\C=C2/C=CN(CC)c3ccccc32)SC1=S` the activity change, negative = inhibition was inconclusive: -49.4%.
With `CC(=O)N1CCN(c2c(F)c(F)c(C(F)(F)F)c(F)c2F)CC1` the activity change, negative = inhibition was active: -60.6%.
With `COc1ccccc1-c1cc(C(=O)NC(C)C)no1` the activity change, negative = inhibition was inactive: 107%.
With `Cc1cccc(N=C2CCCC2C(=O)Nc2cccc(C)c2C)c1C` (configuration not stated) the activity change, negative = inhibition was inactive: -4.77%.
With `CCOc1ccccc1OCCC(=O)N1CCN(S(=O)(=O)c2ccccc2[N+](=O)[O-])CC1` the activity change, negative = inhibition was inconclusive: -53.2%.
With `Cc1nc(N2CCCCC2)sc1C(=O)c1ccc(SCCO)c([N+](=O)[O-])c1` the activity change, negative = inhibition was inconclusive: -44.9%.
In the case of `Cc1c(C(=O)Nc2ccc3c(c2)OCCO3)sc2ncnc(N3CCCCC3C)c12` (configuration not stated), the activity change, negative = inhibition is reported as inconclusive: 0%.
For `CCOC(=O)c1nn(-c2cccc(Cl)c2)c2nc(CC(C)C)c(C#N)c(=O)n12`, the activity change, negative = inhibition was inconclusive: -41.1%.
With `CCOc1cc(N2CCOCC2)c(OCC)cc1NC(=O)c1ccc(OC)cc1` the activity change, negative = inhibition was inconclusive: -42.8%.
In the case of `COC(=O)C(NC(=O)c1ccccc1)=C1CCCCC1`, the activity change, negative = inhibition is reported as inconclusive: -41.1%.
With `Cc1c(C(=O)NCc2ccco2)sc(=O)n1Cc1ccc(S(C)(=O)=O)cc1` the activity change, negative = inhibition was inconclusive: -42.6%.
In the case of `CCOC(=O)CN(Cc1ccccc1)C(C(=O)NC1CCCCC1)c1ccccc1` (configuration not stated), the activity change, negative = inhibition is reported as inconclusive: -48.3%.
In the case of `CN1CC[C@]2(CCN3CCc4c(oc5ccccc45)[C@@H]3C2)N(C)C1=O`, the activity change, negative = inhibition is reported as inconclusive: -42.3%.
With `NS(=O)(=O)c1ccc(NC(=O)CSc2ccccn2)cc1` the activity change, negative = inhibition was inactive: -31.1%.
In the case of `COc1ccc(NC(=O)COc2nc3ccccc3nc2N2CCOCC2)c(OC)c1`, the activity change, negative = inhibition is reported as inactive: 22.2%.
With `COc1ccc(CN2C(=O)C(n3ccc4ccccc43)c3cc(Cl)ccc32)cc1` (configuration not stated) the activity change, negative = inhibition was active: -83.7%.
For `CS(=O)(=O)c1ccc(-c2cccc(NC(=O)c3ccco3)c2)nn1`, the activity change, negative = inhibition was inactive: -14.6%.
With `CN1CCC(OC(=O)c2cccc(F)c2)CC1` the activity change, negative = inhibition was inconclusive: -43%.
For `COC(=O)Cc1c(C)nc2nc(NCc3ccc(Br)cc3)[nH]n2c1=O`, the activity change, negative = inhibition was inactive: 12.3%.
With `CCC1CN(CC(=O)NCc2cccc(Br)c2)c2ccccc2S1` (configuration not stated) the activity change, negative = inhibition was inactive: 17%.
For `O=C(CSc1ncnc2c1nnn2Cc1ccc(F)cc1)NC1CCCC1`, the activity change, negative = inhibition was inconclusive: -54.8%.
With `COc1ccc(-c2ccc(CCC(=O)O)n2-c2ccccc2C(F)(F)F)cc1` the activity change, negative = inhibition was inconclusive: -53.2%.
With `COc1ccc(-c2nc3ccccc3o2)cc1NC(=O)c1cc([N+](=O)[O-])ccc1N1CCOCC1` the activity change, negative = inhibition was inactive: 17.1%.
In the case of `COc1cc(NC(=O)c2cncc(-c3ccc(C#N)cc3)c2)cc(C(=O)Nc2cccc(C(F)(F)F)c2)c1`, the activity change, negative = inhibition is reported as active: -78.9% and active: -65.8%.
With `COC(=O)c1[nH]c2c(c1C)C(=O)CC(c1cc(OC)c(OC)c(OC)c1)C2` (configuration not stated) the activity change, negative = inhibition was active: -73.5%.
For `Cc1ccc2c(c1)NC(=O)C(CC(=O)NCCCN1CCN(c3cc(C)ccc3C)CC1)O2` (configuration not stated), the activity change, negative = inhibition was inconclusive: -45.9%.
For `Cc1ccccc1OCc1nnc(SCc2cc(=O)c3cc(F)ccc3[nH]2)n1C`, the activity change, negative = inhibition was active: -61.6%.
In the case of `Cc1ccc(Nc2cc(C)nc3ccccc23)c(C)c1`, the activity change, negative = inhibition is reported as inconclusive: -57%.
With `CCOC(=O)CNC(=O)CSc1ncnc2c1nnn2-c1ccc(F)cc1` the activity change, negative = inhibition was active: -67.5%.
For `CN(C(=O)CN1C(=O)S/C(=C\c2ccccc2Cl)C1=O)C1CCS(=O)(=O)C1` (configuration not stated), the activity change, negative = inhibition was inconclusive: -51.4%.
With `Nc1ccc2c(O)cc(S(=O)(=O)O)cc2c1` the activity change, negative = inhibition was inconclusive: -57%.
In the case of `CC(=O)Nc1ccc(S(=O)(=O)NCc2nc(-c3ccccc3C)no2)cc1`, the activity change, negative = inhibition is reported as inconclusive: -52.9%.
With `Cc1c(C(=O)N(CCC#N)c2ccccc2)sc2nc3n(c(=O)c12)CCCC3` the activity change, negative = inhibition was inconclusive: -52.8%.
With `Cc1ccc(NC(=O)Cc2c(Cl)cccc2Cl)cc1S(=O)(=O)N(C)C` the activity change, negative = inhibition was inconclusive: -40.2%.
In the case of `COc1ccc(-c2cc(C(F)(F)F)n3ncc(C(=O)N4CCCCC4c4cccnc4)c3n2)cc1` (configuration not stated), the activity change, negative = inhibition is reported as inconclusive: -50.5%.
For `COc1ccc(-n2cc(CN3CCCC3)c(-c3cccc(F)c3)n2)cc1`, the activity change, negative = inhibition was inconclusive: -54.1%.
In the case of `COC(=O)C1=CN(c2ccc(OC)cc2)C(N)=C(C#N)C1c1cccc2ccccc12` (configuration not stated), the activity change, negative = inhibition is reported as inconclusive: -40.9%.
In the case of `O=[N+]([O-])c1ccc(O)c(NC(=S)Nc2ccccc2)c1`, the activity change, negative = inhibition is reported as active: -89.5%.
For `CCNC(=O)C1(C)CCCN(C(=O)c2sccc2C)C1` (configuration not stated), the activity change, negative = inhibition was inactive: 32.8%.
For `COc1cccc(CNC(=O)c2cc3c(=O)n(C)c4ccccc4c3n2C)c1`, the activity change, negative = inhibition was inconclusive: -52.9%.
For `O=C(COC(=O)c1ccc(Cl)nc1)NNC(=O)c1ccc(Cl)cc1`, the activity change, negative = inhibition was inactive: -2.43%.
In the case of `CC(C)(C)c1ccc(Oc2ccc(NC(=O)c3cccs3)cn2)cc1`, the activity change, negative = inhibition is reported as inconclusive: -46.4%.
For `CCc1cc2c(=O)c(-c3cnn(-c4ccccc4)c3)coc2c(CN2CCOCC2)c1O`, the activity change, negative = inhibition was inconclusive: -58.5%.
In the case of `COc1cc(OC)cc(C(=O)N/N=C/c2ccc(OC)c(COc3ccc4ccccc4c3)c2)c1`, the activity change, negative = inhibition is reported as inactive: -31.8%.
For `CC1(C)CC2CC(C)(CN2C(=O)CCCN2C(=O)c3ccccc3C2=O)C1` (configuration not stated), the activity change, negative = inhibition was inconclusive: -46.2%.
For `CCCn1nc(NC(=O)CC)c2cc3cccc(C)c3nc21`, the activity change, negative = inhibition was inconclusive: -55.2%.
In the case of `O=C(Nc1cccc(C2=NCCN2)c1)Nc1cccc(C2=NCCN2)c1`, the activity change, negative = inhibition is reported as active: -80.6%.
For `O=C(CNC(=O)Cc1ccccc1)NCc1cccc(C(F)(F)F)c1`, the activity change, negative = inhibition was inconclusive: -46.6%.
With `O=C(Cn1cc2c(n1)CCCCC2)Nc1ccccc1Cl` the activity change, negative = inhibition was inconclusive: -42.9%.
For `COc1ccc(NC(=S)NNC(=O)CNc2ccc(Cl)cc2)cc1`, the activity change, negative = inhibition was inconclusive: -53.3%.
For `Cc1ccc2[nH]c3c(N4CCc5ccccc5C4)ncnc3c2c1`, the activity change, negative = inhibition was active: -67.1%.
With `CC(Sc1nnc(Nc2ccccc2)s1)C(=O)Nc1nc(-c2ccccc2)cs1` (configuration not stated) the activity change, negative = inhibition was inconclusive: -44.9%.
With `O=S1(=O)NC(=NCCc2ccccn2)c2ccccc21` the activity change, negative = inhibition was inactive: -7.04%.
In the case of `O=C(CSc1nnc(COc2ccccc2)o1)N1CCCCC1`, the activity change, negative = inhibition is reported as inactive: -18.5%.
For `COCc1ccc(C(=O)NC2CCCc3c2cnn3-c2cc(C)cc(C)c2)s1` (configuration not stated), the activity change, negative = inhibition was inconclusive: -56.2%.
In the case of `O=C(Nc1ccccc1F)c1oc2ccccc2c1NC(=O)C1CC1`, the activity change, negative = inhibition is reported as inconclusive: -58.5%.
With `Cc1cc(Nc2cnc3ccccc3n2)n(-c2ccccc2)n1` the activity change, negative = inhibition was inactive: 37.7%.
With `c1ccc(Cc2nc(-c3ccccn3)no2)cc1` the activity change, negative = inhibition was inactive: 58.7%.
For `CCCNC(=O)Nc1ccc2c(c1)N(C)C(=O)c1ccccc1S2`, the activity change, negative = inhibition was inactive: -24.8%.
For `Cc1ccc(NS(=O)(=O)c2ccc(Br)s2)nc1`, the activity change, negative = inhibition was inconclusive: -46.6%.
In the case of `O=C(Nc1ccc2c(c1)oc1ccc(S(=O)(=O)N3CCCC3)cc12)C1CC1`, the activity change, negative = inhibition is reported as inconclusive: -52.2%.
In the case of `O=C(COc1ccc(Cl)cc1Cl)N/N=C/CCc1ccccc1`, the activity change, negative = inhibition is reported as inconclusive: -40.4%.
With `COc1cccc(/C=C2\N=C3CCCCCN3C2=O)c1` the activity change, negative = inhibition was inactive: -2.51%.
In the case of `CC(C(=O)O)N1C(=O)c2ccccc2C1=O` (configuration not stated), the activity change, negative = inhibition is reported as active: -99%.
With `CN(C)CCCNC1=CC(=O)CC(c2ccccc2)C1` (configuration not stated) the activity change, negative = inhibition was inconclusive: -40.7%.
With `O=C(COc1cccc2cccnc12)N/N=C/c1ccccc1O` the activity change, negative = inhibition was inconclusive: 0%.
With `COc1ccc(NC(=O)COC(=O)CCC2CCCC2)c(OC)c1` the activity change, negative = inhibition was inconclusive: -44.5%.
In the case of `COCCN(C(=O)CSc1nnc2cc(C)c3ccccc3n12)c1c(N)n(Cc2ccccc2)c(=O)[nH]c1=O`, the activity change, negative = inhibition is reported as active: -93.7%.
For `C/C(=N/NC(=O)CN1CCN(S(=O)(=O)c2ccc(C)cc2)CC1)c1cccc(O)c1`, the activity change, negative = inhibition was inconclusive: -45.8%.
With `O=C(Nc1ccc(Cl)c([N+](=O)[O-])c1)C(Sc1ccccc1)c1ccccc1` (configuration not stated) the activity change, negative = inhibition was active: -102%.
With `Cc1cc2nc(-c3ccc(SCc4ccc(C#N)cc4)nc3)[nH]c2cc1C` the activity change, negative = inhibition was inconclusive: -45.3%.
For `O=C(NCc1ccccc1)C(c1ccc(-c2ccccc2)cc1)N1CCN(c2ccccc2F)CC1` (configuration not stated), the activity change, negative = inhibition was inconclusive: -40.8%.
In the case of `O=S(=O)(NCCOCC(F)(F)C(F)F)c1ccc2oc3ccccc3c2c1`, the activity change, negative = inhibition is reported as inconclusive: -50.1%.
With `Cc1cc(C)c2oc(-c3cccc(NC(=O)c4ccc(F)cc4)c3)nc2c1` the activity change, negative = inhibition was inconclusive: -48.1%.
For `Cc1ccc2nsnc2c1NC(=O)c1ccccc1[N+](=O)[O-]`, the activity change, negative = inhibition was inconclusive: -48.4%.
With `Cc1cc2cc(CN(Cc3cccs3)S(=O)(=O)c3ccc4c(c3)OCCO4)c(=O)[nH]c2cc1C` the activity change, negative = inhibition was inconclusive: -50.1%.
For `COc1cc(C)nc(N2CCCC(C(=O)Nc3ccccc3Br)C2)n1` (configuration not stated), the activity change, negative = inhibition was inconclusive: -52.7%.
In the case of `CCOC(=O)c1sc(NC(=O)c2ccc(Br)o2)cc1C`, the activity change, negative = inhibition is reported as inconclusive: -44.9%.
For `CCOC(=O)N1CCN(C(=O)c2c(-c3ccccc3Cl)noc2C)CC1`, the activity change, negative = inhibition was inactive: 0%.
With `COC(=O)[C@]12CCCCC=C1N(Cc1ccc3c(c1)OCO3)C(=O)[C@H](CC(=O)N1CCOCC1)C2` the activity change, negative = inhibition was inconclusive: -44.3%.
In the case of `Cc1cccc(/C=C2/Sc3ccc(C(=O)NCCN4CCCC4)cc3NC2=O)c1`, the activity change, negative = inhibition is reported as inconclusive: -44.4%.
For `CCOC(=O)CSc1nc(N)c(C#N)cc1C#N`, the activity change, negative = inhibition was inconclusive: -54.1%.
With `Cc1[nH][nH]c(=O)c1C(c1cc(Br)ccc1O)c1c(C)[nH][nH]c1=O` the activity change, negative = inhibition was inconclusive: -49.9%.
For `O=C1NC(=O)N(c2ccc3c(c2)OCO3)C(=O)/C1=C\c1ccc(N2CCCCC2)o1`, the activity change, negative = inhibition was active: -66.3%.
In the case of `O=S(=O)(Nc1cccnc1)c1ccc(C2CCCCC2)cc1`, the activity change, negative = inhibition is reported as active: -65.7%.

Reference: PubChem BioAssay AID1259415 (National Center for Advancing Translational Sciences (NCATS), 2018)
% is set by controls: 0 for no effect and ±100 for the full control effect.
